Data taken from the supplement of paper PMC10849652.
The other results are listed elsewhere or left out.

By UniProt entry, the sequences of proteins in these tests, tags left out. Where a name states a change or a piece, a line headed by the entry shows the natural chain unless it says otherwise.
UniProt O14893: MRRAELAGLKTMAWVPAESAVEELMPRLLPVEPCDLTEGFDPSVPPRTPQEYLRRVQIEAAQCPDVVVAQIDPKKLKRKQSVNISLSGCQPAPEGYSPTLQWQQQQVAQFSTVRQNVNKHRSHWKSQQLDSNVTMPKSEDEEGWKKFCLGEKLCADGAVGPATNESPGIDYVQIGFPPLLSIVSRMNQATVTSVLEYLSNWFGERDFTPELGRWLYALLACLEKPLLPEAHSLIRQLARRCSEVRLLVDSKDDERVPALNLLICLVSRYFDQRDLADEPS
UniProt Q10471: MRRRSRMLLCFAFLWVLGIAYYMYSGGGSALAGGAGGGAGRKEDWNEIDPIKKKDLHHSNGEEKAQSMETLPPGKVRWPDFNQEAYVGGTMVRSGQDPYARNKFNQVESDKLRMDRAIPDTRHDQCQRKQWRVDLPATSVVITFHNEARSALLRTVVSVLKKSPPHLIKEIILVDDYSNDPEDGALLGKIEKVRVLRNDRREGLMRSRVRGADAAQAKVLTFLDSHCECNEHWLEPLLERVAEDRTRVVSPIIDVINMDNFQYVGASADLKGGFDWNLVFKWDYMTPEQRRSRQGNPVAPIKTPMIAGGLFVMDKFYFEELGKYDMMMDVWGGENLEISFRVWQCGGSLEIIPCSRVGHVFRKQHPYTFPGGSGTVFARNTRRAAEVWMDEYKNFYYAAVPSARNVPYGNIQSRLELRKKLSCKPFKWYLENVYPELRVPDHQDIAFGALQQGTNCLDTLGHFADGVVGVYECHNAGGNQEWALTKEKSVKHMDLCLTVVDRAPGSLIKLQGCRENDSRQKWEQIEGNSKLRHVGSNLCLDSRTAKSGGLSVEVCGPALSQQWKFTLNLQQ
UniProt P15976: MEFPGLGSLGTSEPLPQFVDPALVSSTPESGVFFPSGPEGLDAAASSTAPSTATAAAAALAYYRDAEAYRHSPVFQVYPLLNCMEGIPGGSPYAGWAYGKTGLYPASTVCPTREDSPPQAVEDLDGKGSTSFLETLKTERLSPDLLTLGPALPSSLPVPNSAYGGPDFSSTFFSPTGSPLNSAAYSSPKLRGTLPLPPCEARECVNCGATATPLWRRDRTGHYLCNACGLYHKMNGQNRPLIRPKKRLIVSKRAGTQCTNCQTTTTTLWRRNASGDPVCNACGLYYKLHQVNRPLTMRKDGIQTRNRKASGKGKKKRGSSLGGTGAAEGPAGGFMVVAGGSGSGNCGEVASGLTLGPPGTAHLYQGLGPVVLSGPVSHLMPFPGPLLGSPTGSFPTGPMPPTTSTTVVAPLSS
UniProt Q06546: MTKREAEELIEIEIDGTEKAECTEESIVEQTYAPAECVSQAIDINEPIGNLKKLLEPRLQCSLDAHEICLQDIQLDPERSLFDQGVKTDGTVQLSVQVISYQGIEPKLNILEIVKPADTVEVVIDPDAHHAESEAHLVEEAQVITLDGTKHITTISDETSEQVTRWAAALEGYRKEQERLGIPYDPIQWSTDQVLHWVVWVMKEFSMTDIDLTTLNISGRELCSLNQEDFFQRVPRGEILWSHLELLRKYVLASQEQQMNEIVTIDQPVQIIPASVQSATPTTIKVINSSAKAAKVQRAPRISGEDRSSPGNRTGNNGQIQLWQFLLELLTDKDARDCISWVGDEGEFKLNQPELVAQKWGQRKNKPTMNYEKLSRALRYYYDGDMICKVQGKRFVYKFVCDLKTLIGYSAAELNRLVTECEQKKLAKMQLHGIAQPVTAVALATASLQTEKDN
UniProt P54803: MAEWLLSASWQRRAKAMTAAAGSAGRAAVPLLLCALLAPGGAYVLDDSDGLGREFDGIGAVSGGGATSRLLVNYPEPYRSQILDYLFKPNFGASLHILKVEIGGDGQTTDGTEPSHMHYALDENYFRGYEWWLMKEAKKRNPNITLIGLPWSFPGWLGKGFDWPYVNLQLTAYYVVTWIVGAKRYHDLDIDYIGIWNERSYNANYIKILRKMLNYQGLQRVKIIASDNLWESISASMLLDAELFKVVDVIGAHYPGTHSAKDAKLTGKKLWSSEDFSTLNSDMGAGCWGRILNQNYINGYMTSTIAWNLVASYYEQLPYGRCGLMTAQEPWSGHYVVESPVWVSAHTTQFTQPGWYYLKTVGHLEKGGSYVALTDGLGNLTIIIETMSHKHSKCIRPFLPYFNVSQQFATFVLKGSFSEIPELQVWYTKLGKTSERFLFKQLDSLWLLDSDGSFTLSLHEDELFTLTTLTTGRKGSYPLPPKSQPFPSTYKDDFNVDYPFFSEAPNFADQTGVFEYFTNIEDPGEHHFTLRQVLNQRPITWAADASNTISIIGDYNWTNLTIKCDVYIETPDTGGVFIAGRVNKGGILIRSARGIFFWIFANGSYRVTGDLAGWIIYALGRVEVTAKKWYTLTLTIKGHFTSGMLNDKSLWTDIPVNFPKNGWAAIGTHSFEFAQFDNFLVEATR
UniProt Q92538, whole entry, looked up: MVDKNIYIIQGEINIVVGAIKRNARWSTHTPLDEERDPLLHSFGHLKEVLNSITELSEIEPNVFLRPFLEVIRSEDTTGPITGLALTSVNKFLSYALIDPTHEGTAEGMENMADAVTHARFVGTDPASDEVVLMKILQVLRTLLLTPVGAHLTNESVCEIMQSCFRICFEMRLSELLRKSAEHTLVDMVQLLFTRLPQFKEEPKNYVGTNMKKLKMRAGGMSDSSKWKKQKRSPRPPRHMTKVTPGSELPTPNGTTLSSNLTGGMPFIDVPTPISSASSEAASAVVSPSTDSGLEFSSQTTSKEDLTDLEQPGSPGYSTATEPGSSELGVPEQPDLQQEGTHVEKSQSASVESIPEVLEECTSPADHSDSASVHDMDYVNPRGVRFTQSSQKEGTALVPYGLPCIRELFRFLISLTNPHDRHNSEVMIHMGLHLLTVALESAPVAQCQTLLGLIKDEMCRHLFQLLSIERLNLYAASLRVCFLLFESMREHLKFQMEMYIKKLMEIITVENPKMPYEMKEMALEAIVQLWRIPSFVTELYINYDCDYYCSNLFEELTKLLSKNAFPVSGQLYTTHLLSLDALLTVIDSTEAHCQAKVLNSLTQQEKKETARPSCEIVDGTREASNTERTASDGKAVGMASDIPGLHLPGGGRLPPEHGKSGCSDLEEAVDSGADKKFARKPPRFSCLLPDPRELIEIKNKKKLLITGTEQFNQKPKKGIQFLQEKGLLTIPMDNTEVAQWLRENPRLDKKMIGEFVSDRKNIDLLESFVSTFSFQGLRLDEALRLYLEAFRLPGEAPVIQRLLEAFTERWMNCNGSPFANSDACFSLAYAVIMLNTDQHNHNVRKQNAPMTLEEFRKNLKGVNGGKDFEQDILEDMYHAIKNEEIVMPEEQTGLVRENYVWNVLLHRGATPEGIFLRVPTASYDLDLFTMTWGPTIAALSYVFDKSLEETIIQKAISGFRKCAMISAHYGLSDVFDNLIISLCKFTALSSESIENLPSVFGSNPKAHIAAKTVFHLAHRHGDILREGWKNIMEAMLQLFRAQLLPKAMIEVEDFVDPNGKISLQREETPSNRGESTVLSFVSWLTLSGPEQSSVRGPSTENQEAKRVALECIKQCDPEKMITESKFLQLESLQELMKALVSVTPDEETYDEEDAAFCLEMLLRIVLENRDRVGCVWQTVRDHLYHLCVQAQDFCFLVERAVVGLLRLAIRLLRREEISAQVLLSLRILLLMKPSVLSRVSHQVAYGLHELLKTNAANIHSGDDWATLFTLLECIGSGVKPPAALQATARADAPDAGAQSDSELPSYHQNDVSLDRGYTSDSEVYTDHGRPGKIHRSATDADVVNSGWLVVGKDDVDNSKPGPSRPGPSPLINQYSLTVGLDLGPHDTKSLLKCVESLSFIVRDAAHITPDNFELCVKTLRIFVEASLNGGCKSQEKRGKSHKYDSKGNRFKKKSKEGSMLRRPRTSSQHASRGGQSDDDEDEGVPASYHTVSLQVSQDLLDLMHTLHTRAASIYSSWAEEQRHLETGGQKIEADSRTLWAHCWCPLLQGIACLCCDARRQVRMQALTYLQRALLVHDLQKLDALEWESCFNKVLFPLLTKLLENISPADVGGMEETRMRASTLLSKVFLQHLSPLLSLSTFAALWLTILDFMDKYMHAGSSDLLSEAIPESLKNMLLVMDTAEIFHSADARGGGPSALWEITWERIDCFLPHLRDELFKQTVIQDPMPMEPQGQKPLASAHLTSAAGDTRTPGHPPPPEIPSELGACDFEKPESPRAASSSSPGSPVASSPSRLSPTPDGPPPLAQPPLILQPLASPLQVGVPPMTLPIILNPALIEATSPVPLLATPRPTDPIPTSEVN
UniProt Q05932: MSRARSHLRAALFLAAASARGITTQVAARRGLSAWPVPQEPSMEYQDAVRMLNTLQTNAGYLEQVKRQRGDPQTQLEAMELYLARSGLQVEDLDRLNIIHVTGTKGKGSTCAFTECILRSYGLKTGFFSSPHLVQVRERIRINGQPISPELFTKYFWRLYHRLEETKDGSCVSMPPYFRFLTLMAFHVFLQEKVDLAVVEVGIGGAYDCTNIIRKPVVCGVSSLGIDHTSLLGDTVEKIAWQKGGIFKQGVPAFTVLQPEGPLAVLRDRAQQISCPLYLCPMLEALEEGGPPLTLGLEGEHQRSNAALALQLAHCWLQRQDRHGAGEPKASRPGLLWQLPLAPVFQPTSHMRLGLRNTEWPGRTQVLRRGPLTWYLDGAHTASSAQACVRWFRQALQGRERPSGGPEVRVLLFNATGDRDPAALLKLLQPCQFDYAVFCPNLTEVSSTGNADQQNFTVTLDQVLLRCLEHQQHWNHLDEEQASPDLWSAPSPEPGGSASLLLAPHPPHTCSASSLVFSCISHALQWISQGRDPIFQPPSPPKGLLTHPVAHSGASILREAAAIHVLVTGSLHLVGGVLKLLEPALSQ
UniProt Q8WXD5: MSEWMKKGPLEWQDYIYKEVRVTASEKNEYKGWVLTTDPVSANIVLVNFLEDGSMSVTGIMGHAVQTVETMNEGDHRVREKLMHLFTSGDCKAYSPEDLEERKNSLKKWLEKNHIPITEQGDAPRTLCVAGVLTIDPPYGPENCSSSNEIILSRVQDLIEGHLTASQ
UniProt Q8TEQ6: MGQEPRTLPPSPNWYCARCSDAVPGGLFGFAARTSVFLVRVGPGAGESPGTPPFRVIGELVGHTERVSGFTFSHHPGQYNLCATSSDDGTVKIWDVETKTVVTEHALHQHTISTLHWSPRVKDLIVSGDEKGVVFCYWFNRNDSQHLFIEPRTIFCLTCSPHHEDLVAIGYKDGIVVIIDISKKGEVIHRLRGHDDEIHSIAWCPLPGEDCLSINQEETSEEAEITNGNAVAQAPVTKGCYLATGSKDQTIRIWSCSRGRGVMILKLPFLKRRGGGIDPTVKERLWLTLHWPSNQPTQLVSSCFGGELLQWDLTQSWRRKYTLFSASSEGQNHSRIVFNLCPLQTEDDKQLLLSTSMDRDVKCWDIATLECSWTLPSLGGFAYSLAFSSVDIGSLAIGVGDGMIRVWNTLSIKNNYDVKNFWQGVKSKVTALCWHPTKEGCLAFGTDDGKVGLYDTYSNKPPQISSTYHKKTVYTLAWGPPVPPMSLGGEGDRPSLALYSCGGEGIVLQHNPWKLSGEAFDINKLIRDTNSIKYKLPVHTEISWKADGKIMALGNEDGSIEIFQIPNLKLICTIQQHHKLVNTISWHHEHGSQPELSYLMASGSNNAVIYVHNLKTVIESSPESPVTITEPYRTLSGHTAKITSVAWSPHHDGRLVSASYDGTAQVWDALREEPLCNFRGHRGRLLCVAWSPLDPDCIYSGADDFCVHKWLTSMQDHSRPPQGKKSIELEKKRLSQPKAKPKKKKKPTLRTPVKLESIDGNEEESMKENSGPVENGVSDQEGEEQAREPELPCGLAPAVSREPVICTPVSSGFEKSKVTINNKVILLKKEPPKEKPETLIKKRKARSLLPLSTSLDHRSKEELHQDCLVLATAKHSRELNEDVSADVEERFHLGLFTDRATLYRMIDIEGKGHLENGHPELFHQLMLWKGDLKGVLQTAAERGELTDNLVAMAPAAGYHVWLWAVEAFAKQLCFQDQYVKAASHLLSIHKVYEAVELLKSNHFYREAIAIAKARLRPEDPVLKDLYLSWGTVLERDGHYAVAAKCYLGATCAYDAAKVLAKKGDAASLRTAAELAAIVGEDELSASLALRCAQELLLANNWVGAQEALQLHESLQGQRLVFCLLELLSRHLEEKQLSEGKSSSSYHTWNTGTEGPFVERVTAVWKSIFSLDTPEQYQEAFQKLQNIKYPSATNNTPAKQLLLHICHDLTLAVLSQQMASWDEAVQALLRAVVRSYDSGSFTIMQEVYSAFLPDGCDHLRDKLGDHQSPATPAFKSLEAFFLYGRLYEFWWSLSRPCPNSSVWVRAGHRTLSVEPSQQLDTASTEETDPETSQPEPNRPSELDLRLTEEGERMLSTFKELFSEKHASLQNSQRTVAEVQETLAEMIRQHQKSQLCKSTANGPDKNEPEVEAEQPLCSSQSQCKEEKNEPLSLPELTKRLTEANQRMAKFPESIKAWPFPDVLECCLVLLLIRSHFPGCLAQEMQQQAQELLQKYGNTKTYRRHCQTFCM

Assays:
Experiment in all cases: log2 fold change, soluble protein after heating vs DMSO (PISA); higher = thermal stabilisation; K562 cells, 10 uM, 30 min; active = over 0.2 and 3.5 SD of the protein, either way, in both replicates (recomputed)
[1] = compound: CS(=O)(=O)c1ccc(-c2cnc(N)c(C(=O)Nc3ccccc3)n2)cc1
Outline: (§1)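 K562 cells at 2×10^6 cells/mL were exposed to 10 μM compound for 30 min, then aliquots were heated for 3 min across 48°C-58°C, pooled, and extracted in PBS containing 0.5% NP-40 at 4°C. The supernatant after 21,000xg for 90 min was taken as soluble protein and measured by TMTpro 16plex LC-MS/MS with channel sums equalised. Thermal stability is reported relative to control samples, with values from duplicates. Fold changes are given on a log2 scale.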

crizotinib = compound: C[C@@H](Oc1cc(-c2cnn(C3CCNCC3)c2)cnc1N)c1c(Cl)ccc(F)c1Cl [crizotinib]
Outline: as §1

[2] = compound: C[C@@H]1COCCN1C2=NC(=NC(=C2)C3(CC3)S(=O)(=O)C)C4=C5C=CNC5=CC=C4
Outline: as §1

[3] = compound: C[C@H](C1=CC=C(C=C1)C(=O)NC2=C3C=CNC3=NC=C2)N
Outline: as §1

gandotinib = compound: Cc1cc(Nc2cc(CN3CCOCC3)c3nc(C)c(Cc4ccc(Cl)cc4F)n3n2)n[nH]1 [gandotinib]
Outline: as §1

[4] = compound: Cc1cc(SCc2sc(-c3ccc(C(F)(F)F)cc3)nc2C)ccc1OCC(=O)O
Outline: as §1

doramapimod = compound: Cc1ccc(-n2nc(C(C)(C)C)cc2NC(=O)Nc2ccc(OCCN3CCOCC3)c3ccccc23)cc1 [doramapimod]
Outline: as §1

ispinesib = compound: Cc1ccc(C(=O)N(CCCN)[C@@H](c2nc3cc(Cl)ccc3c(=O)n2Cc2ccccc2)C(C)C)cc1 [ispinesib]
Outline: as §1

bafetinib = compound: Cc1ccc(NC(=O)c2ccc(CN3CC[C@H](N(C)C)C3)c(C(F)(F)F)c2)cc1Nc1nccc(-c2cncnc2)n1 [bafetinib]
Outline: as §1

[5] = compound: Cc1cccc(CC(=O)N2CCc3c2ccc(-c2cn(C)c4ncnc(N)c24)c3F)n1
Outline: as §1

nilotinib = compound: Cc1cn(-c2cc(NC(=O)c3ccc(C)c(Nc4nccc(-c5cccnc5)n4)c3)cc(C(F)(F)F)c2)cn1 [nilotinib]
Outline: as §1

[6] = compound: Cc1nc(Nc2n[nH]c3c2CN(C(=O)N[C@H](CN(C)C)c2ccccc2)C3(C)C)c2sccc2n1
Outline: as §1

dasatinib = compound: Cc1nc(Nc2ncc(C(=O)Nc3c(C)cccc3Cl)s2)cc(N2CCN(CCO)CC2)n1 [dasatinib]
Outline: as §1

[7] = compound: Cc1ncc(-c2ccnc(Nc3ccc(S(C)(=O)=O)cc3)n2)n1C(C)C
Outline: as §1

[8] = compound: Cn1cc(-c2ccc3c(c2)CCN3C(=O)Cc2cccc(C(F)(F)F)c2)c2c(N)ncnc21
Outline: as §1

[9] = compound: Cn1cc(-c2ccc3nnc(C(F)(F)c4ccc5ncccc5c4)n3n2)cn1
Outline: as §1

tipifarnib = compound: Cn1cncc1[C@@](N)(c1ccc(Cl)cc1)c1ccc2c(c1)c(-c1cccc(Cl)c1)cc(=O)n2C [tipifarnib]
Outline: as §1

mubritinib = compound: FC(F)(F)c1ccc(/C=C/c2nc(COc3ccc(CCCCn4ccnn4)cc3)co2)cc1 [mubritinib]
Outline: as §1

duvelisib = compound: C[C@H](Nc1ncnc2nc[nH]c12)c1cc2cccc(Cl)c2c(=O)n1-c1ccccc1 [duvelisib]
Outline: as §1

tozasertib = compound: Cc1cc(Nc2cc(N3CCN(C)CC3)nc(Sc3ccc(NC(=O)C4CC4)cc3)n2)n[nH]1 [tozasertib]
Outline: as §1

| Target | log2 fold change [1] | log2 fold change (crizotinib) | log2 fold change [2] | log2 fold change [3] | log2 fold change (gandotinib) | log2 fold change [4] | log2 fold change (doramapimod) | log2 fold change (ispinesib) | log2 fold change (bafetinib) | log2 fold change [5] | log2 fold change (nilotinib) | log2 fold change [6] | log2 fold change (dasatinib) | log2 fold change [7] | log2 fold change [8] | log2 fold change [9] | log2 fold change (tipifarnib) | log2 fold change (mubritinib) | log2 fold change (duvelisib) | log2 fold change (tozasertib) |
| --- | --- | --- | --- | --- | --- | --- | --- | --- | --- | --- | --- | --- | --- | --- | --- | --- | --- | --- | --- | --- |
| GAPVD1 isoform 6 (UniProt Q14C86) | inactive: -0.012 | inactive: -0.145 | inactive: 0.017 | inactive: 0.075 | inactive: -0.081 | inactive: 0.147 | inactive: 0.038 | inactive: -0.133 | inactive: 0.023 | inactive: 0.072 | inactive: -0.09 | inactive: -0.092 | inactive: -0.15 | inactive: -0.017 | inactive: -0.043 | inactive: -0.016 | inactive: -0.135 | inactive: 0.028 |  |  |
| GABARAPL1 isoform 2 (UniProt Q9H0R8) | inactive: 0.105 | active: -0.344 | inactive: 0.048 | inactive: -0.045 | inactive: 0.078 | inactive: 0.026 | inactive: -0.034 | active: -0.315 | inactive: -0.171 | inactive: 0.006 | inactive: -0.05 | inactive: -0.028 | inactive: -0.031 | inactive: 0.017 | inactive: -0.016 | inactive: 0.003 | inactive: -0.075 | inactive: 0.044 |  |  |
| GEMIN2 (UniProt O14893) | inactive: 0.032 | inactive: -0.043 | inactive: 0.001 | inactive: 0.061 | inactive: 0.02 | inactive: -0.013 | inactive: 0.029 | inactive: -0.149 | inactive: -0.154 | inactive: -0.124 | inactive: -0.045 | inactive: 0 | inactive: 0.049 | inactive: -0.027 | inactive: -0.039 | inactive: -0.095 | inactive: 0.08 | inactive: -0.048 |  |  |
| FOXK1 (UniProt P85037) | active: -1.1 | inactive: 0.336 | inactive: 0.897 | inactive: -0.482 | active: -1.34 | inactive: -0.148 | inactive: -0.126 | inactive: 0.373 | inactive: 0.03 | inactive: 0.052 | inactive: 0.487 | inactive: -0.816 | inactive: 0.128 | active: -1.19 | inactive: 0.312 | inactive: 0.184 | inactive: 0.008 | inactive: 0.03 |  |  |
| GALNT2 (UniProt Q10471) | inactive: 0.056 | inactive: -0.005 | inactive: 0.093 | inactive: -0.015 | inactive: -0.024 | inactive: 0.022 | inactive: -0.001 | inactive: 0.034 | inactive: -0.046 | inactive: 0.041 | inactive: -0.07 | inactive: -0.066 | inactive: -0.004 | inactive: 0.056 | inactive: 0.032 | inactive: -0.018 | inactive: 0.008 | inactive: 0.008 |  |  |
| GALK1 isoform 2 (UniProt P51570) | inactive: -0.1 | inactive: -0.041 | inactive: 0.037 | inactive: -0.088 | inactive: -0.087 | inactive: 0.056 | inactive: 0.012 | inactive: 0.078 | inactive: 0.061 | inactive: 0.062 | inactive: -0.018 | inactive: -0.001 | inactive: -0.043 | inactive: -0.015 | inactive: 0.055 | inactive: -0.084 | inactive: -0.136 | inactive: 0.01 |  |  |
| GATA1 (UniProt P15976) | inactive: 0.03 | inactive: 0.16 | inactive: -0.032 | inactive: 0.046 | inactive: 0.112 | inactive: -0.071 | inactive: 0.017 | inactive: -0.063 | inactive: -0.09 | inactive: 0.007 | inactive: 0.028 | inactive: 0.033 | inactive: 0.157 | inactive: -0.008 | inactive: -0.084 | inactive: -0.017 | inactive: -0.015 | inactive: -0.033 |  |  |
| GABPA (UniProt Q06546) | inactive: 0.059 | inactive: -0.028 | inactive: 0.126 | inactive: 0.012 | inactive: -0.029 | inactive: 0.068 | inactive: -0.018 | inactive: -0.099 | inactive: -0.036 | inactive: 0.034 | inactive: -0.103 | inactive: -0.115 | inactive: -0.12 | inactive: -0.026 | inactive: 0.048 | inactive: 0.111 | inactive: -0.149 | inactive: 0.019 |  |  |
| GAB2 (UniProt Q9UQC2) | inactive: -0.084 | active: -0.899 | inactive: -0.361 | inactive: 0.033 | inactive: -0.071 | inactive: 0.181 | inactive: 0.118 | inactive: -0.511 |  | inactive: 0 |  |  | inactive: -0.599 |  | inactive: 0.002 | inactive: 0 | inactive: 0.175 | inactive: 0.075 | active: -0.836 |  |
| GALC (UniProt P54803) | inactive: 0.03 | inactive: -0.023 | inactive: 0.03 | inactive: -0.012 | inactive: 0.008 | inactive: 0 | inactive: -0.01 | inactive: -0.135 | active: -0.507 | inactive: 0.084 | inactive: 0.008 | inactive: 0.045 | inactive: 0.096 | inactive: 0.01 | inactive: 0.004 | inactive: 0.065 | inactive: 0.126 | inactive: -0.005 |  |  |
| GBF1 (UniProt Q92538) | inactive: -0.032 | inactive: -0.131 | inactive: 0.023 | inactive: 0.08 | inactive: -0.197 | inactive: 0.041 | inactive: 0.059 | inactive: 0.012 | inactive: 0.014 | inactive: 0.081 | inactive: -0.117 | inactive: -0.109 | inactive: -0.113 | inactive: -0.001 | inactive: -0.079 | inactive: -0.049 | inactive: -0.15 | inactive: 0.093 |  |  |
| FOPNL (UniProt Q96NB1) | inactive: -0.063 | inactive: -0.049 | inactive: -0.329 | inactive: -0.042 | inactive: 0.189 | inactive: 0.093 | inactive: 0.125 |  | inactive: -0.068 | inactive: -0.145 | inactive: 0.28 | inactive: 0.468 | inactive: 0.02 | inactive: -0.247 | inactive: -0.113 |  | inactive: 0.045 | inactive: 0.051 | inactive: 0.025 | inactive: 0.012 |
| FPGS (UniProt Q05932) | inactive: -0.057 | inactive: 0.326 | inactive: 0.055 | inactive: 0.024 | inactive: 0.054 | inactive: 0.101 | inactive: -0.004 | inactive: 0.029 | inactive: -0.078 | inactive: -0.014 |  |  | inactive: 0.194 |  | inactive: -0.133 | inactive: -0.169 | inactive: 0.127 | inactive: 0.113 | inactive: 0.164 |  |
| GALNT1 (UniProt Q10472) | inactive: 0.014 | inactive: -0.012 | inactive: 0.019 | inactive: -0.013 | inactive: 0.012 | inactive: 0.004 | inactive: 0.026 | inactive: 0.048 | inactive: -0.053 | inactive: -0.065 | inactive: -0.059 | inactive: 0.014 | inactive: 0.014 | inactive: 0.142 | inactive: 0.1 | inactive: -0.093 | inactive: 0.019 | inactive: 0.029 |  |  |
| GARS1 (UniProt H7C443) | inactive: 0 | inactive: 0.089 | inactive: 0.078 | inactive: 0.308 | inactive: -0.066 |  | inactive: -0.086 | inactive: -0.216 |  | inactive: -0.316 | inactive: -0.171 | inactive: 0.007 |  | inactive: -0.103 | inactive: -0.001 | inactive: 0.164 | inactive: 0.21 | inactive: 0.033 |  | inactive: -0.093 |
| GEMIN6 (UniProt Q8WXD5) | inactive: -0.076 | inactive: -0.055 | inactive: 0.097 | inactive: 0.091 | inactive: 0.034 | inactive: 0.034 | inactive: -0.016 | inactive: -0.017 | inactive: -0.011 | inactive: -0.042 | inactive: 0.004 | inactive: 0.015 | inactive: -0.024 | inactive: -0.022 | inactive: 0.018 | active: 0.306 | inactive: -0.002 | inactive: 0.067 |  |  |
| GCC2 (UniProt Q8IWJ2) | inactive: 0.04 | inactive: -0.01 | inactive: -0.104 | inactive: 0.246 | inactive: 0.081 | inactive: 0.048 | inactive: 0.136 | inactive: -0.173 | inactive: 0.033 | inactive: -0.045 | inactive: -0.14 | inactive: -0.071 | inactive: -0.011 | inactive: 0.119 | inactive: -0.032 | inactive: 0.02 | inactive: 0.051 | inactive: -0.088 |  |  |
| GEMIN5 (UniProt Q8TEQ6) | inactive: -0.004 | inactive: -0.047 | inactive: 0.038 | inactive: 0.02 | inactive: -0.082 | inactive: 0.055 | inactive: -0.001 | inactive: -0.088 | inactive: 0.015 | inactive: 0.065 | inactive: -0.046 | active: -0.315 | inactive: -0.099 | inactive: -0.127 | inactive: 0.006 | inactive: -0.021 | inactive: -0.049 | inactive: 0.043 |  |  |

Pulled one by one from above:

| Target | log2 fold change [1] | log2 fold change (crizotinib) | log2 fold change [2] | log2 fold change [3] | log2 fold change (gandotinib) | log2 fold change [4] | log2 fold change (doramapimod) | log2 fold change (ispinesib) | log2 fold change (bafetinib) | log2 fold change [5] | log2 fold change (nilotinib) | log2 fold change [6] | log2 fold change (dasatinib) | log2 fold change [7] | log2 fold change [8] | log2 fold change [9] | log2 fold change (tipifarnib) | log2 fold change (mubritinib) | log2 fold change (duvelisib) | log2 fold change (tozasertib) |
| --- | --- | --- | --- | --- | --- | --- | --- | --- | --- | --- | --- | --- | --- | --- | --- | --- | --- | --- | --- | --- |
| GEMIN5 (UniProt Q8TEQ6) | inactive: -0.004 | inactive: -0.047 | inactive: 0.038 | inactive: 0.02 | inactive: -0.082 | inactive: 0.055 | inactive: -0.001 | inactive: -0.088 | inactive: 0.015 | inactive: 0.065 | inactive: -0.046 | active: -0.315 | inactive: -0.099 | inactive: -0.127 | inactive: 0.006 | inactive: -0.021 | inactive: -0.049 | inactive: 0.043 |  |  |
| FPGS (UniProt Q05932) | inactive: -0.057 | inactive: 0.326 | inactive: 0.055 | inactive: 0.024 | inactive: 0.054 | inactive: 0.101 | inactive: -0.004 | inactive: 0.029 | inactive: -0.078 | inactive: -0.014 |  |  | inactive: 0.194 |  | inactive: -0.133 | inactive: -0.169 | inactive: 0.127 | inactive: 0.113 | inactive: 0.164 |  |
